Test results taken from patent US4659712A, “Fodder additive and a process for the preparation” (Richter Gedeon Vegyeszeti Gyar Rt., priority 1984, dated 1987).
“And” between values parts separate entries of the source, which are not always exact repeats. Identical values can stand only once.

Assay: Organoleptic examination (boiling test) of muscle and liver tissues of pigs treated with Carbadox and flumecinol
Format: in vivo
Set-up: key to visual observation / organoleptic (odor) score: 1: negative; 2: slight strange (indeterminable) odor; 3: some strange (slight medicamentlike) odor; 4: definite strange (more expressed medicament) odor
Conditions: for visual observation / organoleptic (odor) score: positive control (Carbadox, no flumecinol), individual animal
Protocol: Tests were carried out at a large-scale pig farm, where 25 mg/kg of body weight of Carbadox admixed with the fodder of the pigs were administered to pigs having a live weight of 40 kg. From a population fed with this fodder 27 animals, each weighing exactly 40 kg, were selected, by weighing them separately. The selected animals were railed off in a place suitable for further tests. From this time on (zero time) the animals were given the same fodder as before, except Carbadox.
The 27 animals were divided into three groups as follows:
Group I: 12 animals (ser. Nos. from 1 to 12) slaughtering: three animals each when starting the experiment (0 time) and on the 1st, 5th and 15th days (positive control group) Group II: 9 amimals (ser. Nos. from 13 to 21) treatment: a single 40 mg/kg of body weight dose of flumecinol at zero time. slaughtering: three animals each on the 1st, 5th and 15th days (group treated with a single dose of flumecinol) Group III: 6 animals (ser. Nos. 22 to 27) treatment: 40 mg/kg of body weight of flumecinol for three days, at zero time and on the 1st and 2nd day slaughtering: three animals each on the 5th and 15th days (group treated with flumecinol three times) Flumecinol is available as a micropellet containing 19.02% of active ingredient. From this and a 1% starch hydrolysate a suspension is prepared, containing 40 mg of flumecinol per 1 ml (dose used for one kg of body weight). The active compound was administered 8 o'clock in the morning, without previous fasting, through a stomach tube, in order to ensure exact conditions for the experiments. The animals were killed and samples were taken from 8 to 11 o'clock in the morning, whereupon the samples were transported into the analytical laboratory within one hour, under cooling.
Quinoxaline-2-carboxylic acid (a metabolite of Carbadox) was determined in the chop, liver and kidney tissues of three animals from each group. Each muscle and liver sample was subjected to organoleptic examination also (boiling test).

## COC(=O)NN=Cc1c[n+]([O-])c2ccccc2[n+]1[O-] [Carbadox, 3-(2-quinoxalinylmethylene)-carbazic acid methyl ester N,N'-dioxide, reference compound]
Carbadox without flumecinol, liver, 15th day
  unpleasant odor in the liver: an unpleasant odor is detected even on the 15th day
0 day, chop
  visual observation / organoleptic (odor) score: 2
0 day, ham
  visual observation / organoleptic (odor) score: 2
0 day, liver
  visual observation / organoleptic (odor) score: 4
1st day, chop
  visual observation / organoleptic (odor) score: 1 and 2
1st day, ham
  visual observation / organoleptic (odor) score: 2 and 1
1st day, liver
  visual observation / organoleptic (odor) score: 4
5th day, chop
  visual observation / organoleptic (odor) score: 1
5th day, ham
  visual observation / organoleptic (odor) score: 1
5th day, liver
  visual observation / organoleptic (odor) score: 3 and 2
15th day, chop
  visual observation / organoleptic (odor) score: 1
15th day, ham
  visual observation / organoleptic (odor) score: 1
15th day, liver
  visual observation / organoleptic (odor) score: 3 and 2
